PubChem BioAssay AID686938, Drosophila RNAi Screening Center – 2013
Assay: 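Fly genes required for calcium entry once internal stores are emptied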 (primary screen). Cell system: Drosophila S2R+ cells. Knock-down reagent: long dsRNA against Drosophila genes, about 0.25 µg dsRNA per well, roughly 10,000 cells. Timing: 5 days of knock-down before the calcium assay. Conditions: thapsigargin (SERCA pump blocker) to empty calcium stores; entry signal taken 4 min after adding it. Measurement: 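Duplicate raw fluo-4 intensities per well from a plate reader, at rest and four minutes after thapsigargin emptied calcium stores; entry-to-rest ratio filled for only some wells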. Scale: calcium entry signal: higher = stronger calcium signal after store depletion; entry to resting ratio: higher = more calcium entry relative to resting level; resting calcium signal: higher = higher resting calcium signal. Active means: 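Called when the plate z-score of the entry-to-rest ratio, mean of duplicates, falls below −3; wells with low overall dye signal (Fmax z below −2) or more than five off-targets excluded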. Meaning of the calls: active = strongly reduced calcium entry; inactive = no strong reduction.
The screen tested about 23,000 reagents; this is a random part of those with a known target gene and a result. Of all reagents, 75 (0.33%) are marked active. 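Raw plate signals without normalisation; calls rest on plate z-scores that were not deposited; ratio present for only 364 wells.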 Unmarked entries are inactive. Names joined by + are all predicted targets of the reagent. The record does not give: the dose of the treatment.

no.	target	DRSC id	calcium entry signal, replicate 1 (fluorescence units)	calcium entry signal, replicate 2 (fluorescence units)	entry to resting ratio	resting calcium signal, replicate 1 (fluorescence units)	resting calcium signal, replicate 2 (fluorescence units)
1	CG11586	DRSC08203	5.70e7	3.26e7		3.68e7	1.65e7
2	Cdc45	DRSC17747	3.80e7	3.81e7		1.77e7	1.98e7
3	Cdc45	DRSC18164	5.05e7	5.41e7	2.2	2.32e7	2.11e7
4	CG31704	DRSC22118	2.37e7	5.77e7		1.19e7	2.41e7
5	Taf11	DRSC03448	3.21e7	4.88e7		1.72e7	2.15e7
6	CG2200	DRSC19840	3.15e7	4.25e7		1.65e7	2.04e7
7	CG17593	DRSC00504	4.20e7	3.31e7		1.82e7	1.51e7
8	Jon25Bii	DRSC03114	4.18e7	3.25e7		1.96e7	1.56e7
9	Fnta	DRSC00557	3.45e7			1.70e7	
10	CG6149	DRSC10593	3.13e7	4.33e7		1.67e7	1.82e7
11	Kaz1-ORFB	DRSC08669	3.16e7	4.46e7		1.72e7	2.08e7
12	CG11145	DRSC06049	5.86e7	4.32e7		2.55e7	1.83e7
13	ttm50	DRSC18587	3.69e7	4.02e7		1.66e7	1.88e7
14	CG31875	DRSC21975	1.92e7	5.46e7		9.59e6	2.55e7
15	Gr58c	DRSC04136	4.62e7	5.15e7		2.12e7	2.40e7
16	CG6847	DRSC19213	3.02e7	4.18e7		1.62e7	1.83e7
17	CG6847	DRSC20009	2.80e7	3.46e7		1.39e7	1.49e7
18	Naglu	DRSC02267	4.49e7			2.45e7	
19	tth	DRSC19435	3.57e7	4.04e7		1.49e7	1.91e7
20	CG31810	DRSC01560	2.45e7	4.12e7		1.50e7	1.76e7
21	Arl8	DRSC16334	5.08e7	3.87e7		2.44e7	2.00e7
22	eff	DRSC16940	1.81e7 (active)	2.35e7		1.34e7	6.12e7
23	CycJ	DRSC08653	4.56e7	3.25e7		2.82e7	1.48e7
24	CysRS	DRSC05948	3.34e7	5.98e7		1.54e7	2.69e7
25	CG8237	DRSC07119	3.59e7	3.89e7		1.81e7	1.89e7
26	CG12164	DRSC06115	4.34e7			2.20e7	
27	CG12164	DRSC21777	4.14e7	3.79e7		2.31e7	1.86e7
28	Abca3	DRSC20546	3.63e7	3.50e7		2.13e7	1.79e7
29	hry	DRSC11353	4.27e7	3.50e7		2.73e7	1.78e7
30	hry	DRSC23249	3.64e7	3.68e7		2.08e7	1.67e7
31	Non3	DRSC16359	3.18e7	3.18e7		1.62e7	1.50e7
32	TBC1D23	DRSC00657	3.88e7	3.29e7		1.80e7	1.64e7
33	TyrRII	DRSC15150	2.12e7	3.14e7		2.79e7	1.30e7
34	CG13243	DRSC01920	4.66e7	4.01e7		1.98e7	1.67e7
35	CG12869	DRSC06208	2.49e7	3.68e7		1.29e7	1.64e7
36	CG4424	DRSC15576	3.55e7	2.99e7		1.61e7	1.30e7
37	CG14341	DRSC00371	4.71e7	5.48e7		1.93e7	2.24e7
38	tal-1A + tal-2A + tal-AA + 1 more	DRSC12992	4.04e7	5.21e7		2.09e7	2.38e7
39	lncRNA:CR43493 + l(1)G0196	DRSC20628	3.68e7	3.88e7		1.76e7	1.77e7
40	CG14762	DRSC05073	3.32e7	5.95e7		1.63e7	2.62e7
41	CG14762	DRSC06496	4.18e7	4.21e7		2.02e7	2.04e7
42	CG34423 + Mthfs	DRSC04088	3.25e7	3.89e7		1.71e7	1.70e7
43	mRpL45	DRSC16146	5.07e7	4.95e7		2.29e7	2.31e7
44	vvl	DRSC11409	3.95e7	5.18e7		1.85e7	2.36e7
45	Jhbp11	DRSC15183	3.63e7	4.66e7		1.66e7	1.84e7
46	CG32022	DRSC09678	3.36e7	5.48e7		1.59e7	2.37e7
47	CR18228	DRSC15317	4.74e7	3.82e7		2.27e7	1.77e7
48	Gr85a	DRSC12760	2.41e7	3.13e7		1.24e7	1.37e7
49	fidipidine	DRSC07618	4.45e7	3.93e7		1.93e7	1.97e7
50	BBS1	DRSC10196	6.39e7	3.52e7		3.15e7	1.76e7
51	ft	DRSC00819	4.98e7			2.52e7	
52	CG32588	DRSC22285	2.83e7	4.26e7		1.43e7	2.42e7
53	qvr	DRSC05280	4.14e7	5.41e7		2.16e7	2.23e7
54	Tps1	DRSC00269	4.07e7			2.40e7	
55	lncRNA:CR32730	DRSC22957	4.23e7	3.30e7		2.09e7	1.26e7
56	CG16798	DRSC02517	4.93e7	5.27e7		2.49e7	2.32e7
57	CG14960	DRSC08419	2.39e7	3.06e7		1.25e7	1.42e7
58	CG15912	DRSC18105	3.53e7	4.40e7		1.83e7	1.90e7
59	Odj	DRSC16234	4.08e7	3.78e7		2.09e7	1.80e7
60	Mrp5	DRSC15597	3.83e7	4.22e7		4.57e7	1.98e7
61	Mrp5	DRSC15598	4.47e7	4.49e7		4.17e7	1.95e7
62	CG30184	DRSC22277	3.12e7	7.72e7		1.63e7	3.40e7
63	CG5961	DRSC15927	3.48e7	5.06e7		1.45e7	1.99e7
64	RpS28a	DRSC15064	3.94e7	5.60e7		2.00e7	2.64e7
65	CG14598	DRSC12541	3.12e7	2.38e7		1.45e7	1.14e7
66	U2A	DRSC06445	3.03e7	4.42e7		1.65e7	1.89e7
67	Mcm5	DRSC16735	3.25e7	3.20e7		1.77e7	1.72e7
68	Ndf	DRSC02775	4.40e7			2.23e7	
69	Ptp99A	DRSC13933	3.36e7	4.52e7		1.60e7	2.12e7
70	Ptp99A	DRSC13939	4.25e7	3.21e7		1.87e7	1.73e7
71	Ptp99A	DRSC14319	2.90e7	4.40e7		1.49e7	1.87e7
72	Ptp99A	DRSC14320	3.24e7	4.09e7		1.70e7	1.83e7
73	Ptp99A	DRSC16803	2.83e7	3.89e7		1.55e7	1.72e7
74	Ptp99A	DRSC22125	1.95e7	4.21e7		1.08e7	2.02e7
75	Ptp99A	DRSC22477	4.00e7	3.45e7		2.29e7	1.62e7
76	Ptp99A	DRSC23033	4.03e7	3.38e7		2.05e7	1.68e7

Only “resting calcium signal, replicate 1 (fluorescence units)” (3 entries from above):
Tps1 [DRSC00269]: 2.40e7
lncRNA:CR32730 [DRSC22957]: 2.09e7
CG16798 [DRSC02517]: 2.49e7
